In the supplement of paper PMC4807443:
Where a name gives a salt, the structure may show the parent alone. This is one part of the list. The numbers are fractions of the control, whatever unit the source prints. Most entries show no effect beyond the scatter of the controls.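 MIN6 is a mouse insulinoma beta-cell line that stably carries a lentiviral reporter in which the Pdx1 and Ins1 promoters each drive a nucleus-targeted fluorescent protein; cells were counted by automated imaging with a Hoechst nuclear stain. In the screen, a drug was a possible hit when its Ins1 promoter readout lay beyond two median absolute deviations from the DMSO controls while Pdx1 activity stayed near normal.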

system: MIN6; experiment: % Pdx1+ Ins1-low (RFP-only, immature) cells relative to DMSO control (fold of DMSO control); higher = more immature Pdx1+/Ins1-low cells; conditions: 8.5 µM; 48 h; glucose 5 mM

First: C[C@]12C[C@H]3S[C@H]3C[C@@H]1CC[C@@H]1[C@@H]2CC[C@]2(C)[C@@H](O)CC[C@@H]12 [Epitiostanol]
Second: C[C@H]1CC[C@]2(NC1)O[C@H]1C[C@H]3[C@@H]4CC[C@H]5C[C@@H](O)CC[C@]5(C)[C@H]4CC[C@]3(C)[C@H]1[C@@H]2C [Tomatidine]
The “% Pdx1+ Ins1-low” value of the first is higher: 1.11 for the first, 0.848 for the second.

Compared with `COP(=O)(OC)C(O)C(Cl)(Cl)Cl` (centres undefined) [Trichlorfon], `CCCC(C)(COC(N)=O)COC(=O)NC(C)C` (centres undefined) [Carisoprodol] is higher in “% Pdx1+ Ins1-low” value: 0.8 for the first, 0.839 for the second.

Going from `C[C@]12CCC(=O)C=C1C=C[C@@H]1[C@@H]2CC[C@@]2(C)[C@H]1CC[C@@]2(O)CCC(=O)O` [Canrenoic acid potassium salt] to `CC(=O)O[C@H]1CC[C@@]2(C)C(=CC[C@@H]3[C@@H]2CC[C@]2(C)C(=O)CC[C@@H]32)C1` [Dehydroisoandosterone 3-acetate], the “% Pdx1+ Ins1-low” value rises from 0.547 to 0.883.

First: C(#CCN1CCCC1)CN1CCCC1 [Tremorine dihydrochloride]
Second: CCCN1CCC[C@@H]2Cc3n[nH]cc3C[C@H]21 [(-)-Quinpirole hydrochloride]
The “% Pdx1+ Ins1-low” value of the first is lower: 0.941 for the first, 0.962 for the second.

First: C[C@]12CC[C@H](O)C[C@H]1CC[C@@H]1[C@@H]2CC[C@]2(C)[C@@H](C3=CC(=O)OC3)CC[C@]12O [Digitoxigenin]
Second: C[C@H]1O[C@@H](O[C@H]2CC[C@]3(C=O)[C@H]4CC[C@]5(C)[C@@H](C6=CC(=O)OC6)CC[C@]5(O)[C@@H]4CC[C@]3(O)C2)C[C@H](O)[C@@H]1O [Helveticoside]
The “% Pdx1+ Ins1-low” value of the first is higher: 1.16 for the first, 0.581 for the second.

Going from `CC(C)c1cccc(C(C)C)c1O` [Propofol] to `CC(N)C(O)c1ccccc1` (centres undefined) [Phenylpropanolamine hydrochloride], the “% Pdx1+ Ins1-low” value rises from 0.649 to 1.89.

Going from `COC1=CC(=O)O[C@@H](/C=C/c2ccccc2)C1` [Kawain] to `CCOC(=O)c1cncn1[C@H](C)c1ccccc1` [Etomidate], the “% Pdx1+ Ins1-low” value falls from 0.863 to 0.849.

Compared with `Oc1ccc2c3c1O[C@H]1[C@@H](O)CC[C@@]4(O)[C@@H](C2)N(CC2CCC2)CC[C@]314` [Nalbuphine hydrochloride], `CC(C)C[C@H]1C(=O)N2CCC[C@H]2[C@]2(O)O[C@](NC(=O)[C@@H]3C=C4c5cccc6[nH]cc(c56)C[C@H]4N(C)C3)(C(C)C)C(=O)N12` [Ergocryptine-alpha] is higher in “% Pdx1+ Ins1-low” value: 0.777 for the first, 1.69 for the second.

Compared with `CN1CCc2cc3c(cc2[C@H]1[C@@H]1OC(=O)c2c1ccc1c2OCO1)OCO3` [Bicuculline (+)], `COc1ccc2c(c1OC)C(=O)O[C@@H]2[C@H]1c2cc3c(cc2CCN1C)OCO3` [Hydrastine hydrochloride] is lower in “% Pdx1+ Ins1-low” value: 1.64 for the first, 0.989 for the second.

First: O=C(NCNC(=O)NC1C(=O)NC(=O)N1CO)NC1C(=O)NC(=O)N1CO (centres undefined) [Imidurea]
Second: CCCCCC[C@H]1C(=O)O[C@H](C)[C@H](NC(=O)c2cccc(NC=O)c2O)C(=O)O[C@@H](C)[C@@H]1OC(=O)CC(C)C [Antimycin A]
The “% Pdx1+ Ins1-low” value of the first is lower: 0.903 for the first, 1.36 for the second.

Compared with `CN1C[C@H](CNC(=O)OCc2ccccc2)C[C@@H]2c3cccc4c3c(cn4C)C[C@H]21` [Metergoline], `CC[C@@H](CO)NC(=O)[C@@H]1C=C2c3cccc4[nH]cc(c34)C[C@H]2N(C)C1` [Methylergometrine maleate] is higher in “% Pdx1+ Ins1-low” value: 1.24 for the first, 1.32 for the second.

Going from `COc1cc2c(c(OC)c1OC)-c1ccc(OC)c(=O)cc1[C@@H](NC(C)=O)CC2` [Colchicine] to `COc1ccc(CC2c3cc(OC)c(OC)cc3CCN2C)cc1OC` (racemic) [Laudanosine (R,S)], the “% Pdx1+ Ins1-low” value falls from 1.41 to 1.21.

Compared with `COc1ccc2c(c1OC)CN1CCc3cc4c(cc3C1C2)OCO4` (centres undefined) [(d,l)-Tetrahydroberberine], `COc1cc2c(cc1O)C[C@H]1c3c(cc(O)c(OC)c3-2)CCN1C` [Boldine] is lower in “% Pdx1+ Ins1-low” value: 1.01 for the first, 0.597 for the second.

Compared with `CC[N+]1(C)CCCC(OC(=O)C(O)(c2ccccc2)c2ccccc2)C1` (centres undefined) [Pipenzolate bromide], `C[N+]1(C)CCCC(OC(=O)C(O)(c2ccccc2)c2ccccc2)C1` (centres undefined) [Mepenzolate bromide] is higher in “% Pdx1+ Ins1-low” value: 0.647 for the first, 0.877 for the second.

Going from `c1ccc2c(c1)OCC(C1=NCCN1)O2` (centres undefined) [Idazoxan hydrochloride] to `c1cncc([C@@H]2CCCCN2)c1` [Anabasine], the “% Pdx1+ Ins1-low” value rises from 0.802 to 0.84.

Going from `C=C1C/C(=C/C)C(=O)O[C@@H]2CCN3CC=C(COC(=O)[C@]1(C)O)[C@H]23` [Seneciphylline] to `C[C@@]12C(=O)OC(=O)[C@]1(C)[C@H]1CC[C@@H]2O1` [Cantharidin], the “% Pdx1+ Ins1-low” value falls from 1.12 to 0.789.

Compared with `C[C@@H]1C[C@@H]([C@H](O)CC2CC(=O)NC(=O)C2)C(=O)[C@@H](C)C1` [Cycloheximide], `CCC1(C)CC(=O)NC(=O)C1` [Bemegride] is higher in “% Pdx1+ Ins1-low” value: 1.3 for the first, 1.32 for the second.

First: O=c1[nH]oc2c1CCNC2 [THIP Hydrochloride]
Second: O=c1cccc2n1C[C@@H]1CNC[C@H]2C1 [Cytisine (-)]
The “% Pdx1+ Ins1-low” value of the first is lower: 0.959 for the first, 1.05 for the second.

Compared with `O=C(CCCN1CCC2(CC1)C(=O)NCN2c1ccccc1)c1ccc(F)cc1` [Spiperone], `OC(c1ccccc1)(c1ccccc1)C1CCNCC1` [Azacyclonol] is lower in “% Pdx1+ Ins1-low” value: 1.18 for the first, 0.998 for the second.

Compared with `CCN1C[C@]2(COC)CC[C@H](O)[C@]34C1[C@@](O)([C@@H](OC)[C@H]23)[C@@]1(O)C[C@H](OC)[C@H]2C[C@@H]4[C@@H]1[C@H]2OC` [Delsoline], `CCN1C[C@]2(COC)CC[C@H](OC)[C@]34C5C[C@@H]6[C@@H](OC)C[C@@]7(OCO[C@@]7(C13)[C@@H](O)C24)C5[C@H]6OC` (some centres undefined) [Delcorine] is lower in “% Pdx1+ Ins1-low” value: 1.11 for the first, 0.808 for the second.

Compared with `O=[N+]([O-])O[C@H]1CO[C@H]2[C@@H]1OC[C@H]2O[N+](=O)[O-]` [Isosorbide dinitrate], `CN1C2CCC1CC(O)C2` (centres undefined) [Tropine] is higher in “% Pdx1+ Ins1-low” value: 0.922 for the first, 1.39 for the second.

Compared with `NCC1(CC(=O)O)CCCCC1` [Gabapentin], `CC[C@@H](C)C(=O)O[C@H]1[C@H](O)[C@H]2[C@@H](CN3C[C@@H](C)CC[C@H]3[C@@]2(C)O)[C@@H]2C[C@]34O[C@]5(O)[C@@H](OC(=O)[C@@](C)(O)CC)CC[C@@]3(C)[C@@H]5[C@@H](OC(C)=O)[C@@H](OC(C)=O)[C@H]4[C@@]21O` [Protoveratrine A] is higher in “% Pdx1+ Ins1-low” value: 0.78 for the first, 0.863 for the second.
